Experimental findings from patent US20220169720A1 are described below.

By UniProt entry, the sequences of proteins in these tests, tags left out. Where a name states a change or a piece, a line headed by the entry shows the natural chain unless it says otherwise.
UniProt Q5S007: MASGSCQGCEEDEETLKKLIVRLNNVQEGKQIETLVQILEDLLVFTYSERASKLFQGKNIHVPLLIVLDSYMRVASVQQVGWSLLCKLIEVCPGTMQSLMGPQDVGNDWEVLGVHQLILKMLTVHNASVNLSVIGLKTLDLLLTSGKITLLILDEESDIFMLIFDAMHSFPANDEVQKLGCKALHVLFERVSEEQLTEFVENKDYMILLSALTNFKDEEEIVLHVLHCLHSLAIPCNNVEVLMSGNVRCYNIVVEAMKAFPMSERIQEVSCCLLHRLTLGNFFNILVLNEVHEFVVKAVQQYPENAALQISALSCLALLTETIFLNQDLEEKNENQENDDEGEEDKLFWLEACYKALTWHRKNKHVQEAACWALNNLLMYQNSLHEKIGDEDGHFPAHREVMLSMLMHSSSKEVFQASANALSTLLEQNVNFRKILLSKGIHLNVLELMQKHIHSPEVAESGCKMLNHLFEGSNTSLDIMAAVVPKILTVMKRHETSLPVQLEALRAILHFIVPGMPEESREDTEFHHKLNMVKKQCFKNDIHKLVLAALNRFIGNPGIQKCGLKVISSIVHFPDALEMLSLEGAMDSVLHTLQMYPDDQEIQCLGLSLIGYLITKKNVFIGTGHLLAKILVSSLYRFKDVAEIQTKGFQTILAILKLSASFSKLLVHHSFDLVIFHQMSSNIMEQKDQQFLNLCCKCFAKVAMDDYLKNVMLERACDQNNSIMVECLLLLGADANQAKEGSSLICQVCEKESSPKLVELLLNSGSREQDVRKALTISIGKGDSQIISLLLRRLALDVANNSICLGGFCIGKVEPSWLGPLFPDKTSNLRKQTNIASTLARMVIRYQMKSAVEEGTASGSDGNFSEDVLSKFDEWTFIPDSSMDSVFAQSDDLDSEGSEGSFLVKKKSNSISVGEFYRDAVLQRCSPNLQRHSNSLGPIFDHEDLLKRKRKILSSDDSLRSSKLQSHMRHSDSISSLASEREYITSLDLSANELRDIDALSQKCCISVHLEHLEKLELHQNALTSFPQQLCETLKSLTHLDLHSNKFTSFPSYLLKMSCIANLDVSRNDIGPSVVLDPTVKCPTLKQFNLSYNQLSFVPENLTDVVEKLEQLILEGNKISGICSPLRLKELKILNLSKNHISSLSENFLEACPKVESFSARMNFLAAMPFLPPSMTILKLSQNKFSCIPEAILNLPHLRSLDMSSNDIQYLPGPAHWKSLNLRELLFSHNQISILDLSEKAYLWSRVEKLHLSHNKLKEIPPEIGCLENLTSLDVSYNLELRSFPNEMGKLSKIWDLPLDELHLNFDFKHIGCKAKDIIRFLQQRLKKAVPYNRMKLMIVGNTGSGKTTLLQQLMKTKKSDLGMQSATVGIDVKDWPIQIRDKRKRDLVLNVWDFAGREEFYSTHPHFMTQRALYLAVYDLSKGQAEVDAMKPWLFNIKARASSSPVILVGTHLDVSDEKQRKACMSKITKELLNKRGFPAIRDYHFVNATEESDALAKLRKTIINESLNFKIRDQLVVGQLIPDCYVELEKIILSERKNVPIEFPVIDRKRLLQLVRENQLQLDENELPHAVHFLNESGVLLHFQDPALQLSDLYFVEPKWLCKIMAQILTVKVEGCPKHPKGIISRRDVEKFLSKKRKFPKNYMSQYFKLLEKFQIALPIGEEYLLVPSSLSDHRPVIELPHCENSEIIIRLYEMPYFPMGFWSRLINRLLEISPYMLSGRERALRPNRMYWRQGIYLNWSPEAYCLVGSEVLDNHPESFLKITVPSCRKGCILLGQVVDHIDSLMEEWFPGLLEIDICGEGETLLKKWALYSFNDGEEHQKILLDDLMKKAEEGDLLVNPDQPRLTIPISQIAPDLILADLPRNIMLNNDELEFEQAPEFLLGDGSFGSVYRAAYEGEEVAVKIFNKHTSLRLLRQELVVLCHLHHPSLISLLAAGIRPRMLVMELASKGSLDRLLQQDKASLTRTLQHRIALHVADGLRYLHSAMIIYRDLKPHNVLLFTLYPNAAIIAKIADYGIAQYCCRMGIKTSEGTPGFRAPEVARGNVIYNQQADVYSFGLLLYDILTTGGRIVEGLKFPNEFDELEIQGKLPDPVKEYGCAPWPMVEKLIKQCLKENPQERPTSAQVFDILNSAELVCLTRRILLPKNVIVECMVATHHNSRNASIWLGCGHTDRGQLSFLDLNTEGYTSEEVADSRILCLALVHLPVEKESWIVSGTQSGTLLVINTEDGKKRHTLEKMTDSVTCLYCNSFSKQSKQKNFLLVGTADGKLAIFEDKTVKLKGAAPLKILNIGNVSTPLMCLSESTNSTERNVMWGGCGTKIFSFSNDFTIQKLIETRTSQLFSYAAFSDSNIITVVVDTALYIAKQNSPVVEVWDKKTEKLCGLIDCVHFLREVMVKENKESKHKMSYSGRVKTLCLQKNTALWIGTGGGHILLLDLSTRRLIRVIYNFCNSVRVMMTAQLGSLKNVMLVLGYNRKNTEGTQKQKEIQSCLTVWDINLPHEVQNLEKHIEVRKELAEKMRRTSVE

This experiment addresses T1, Rubicon-Flag (Homo sapiens (Human)) (UniProt Q92622).
T1 sequence: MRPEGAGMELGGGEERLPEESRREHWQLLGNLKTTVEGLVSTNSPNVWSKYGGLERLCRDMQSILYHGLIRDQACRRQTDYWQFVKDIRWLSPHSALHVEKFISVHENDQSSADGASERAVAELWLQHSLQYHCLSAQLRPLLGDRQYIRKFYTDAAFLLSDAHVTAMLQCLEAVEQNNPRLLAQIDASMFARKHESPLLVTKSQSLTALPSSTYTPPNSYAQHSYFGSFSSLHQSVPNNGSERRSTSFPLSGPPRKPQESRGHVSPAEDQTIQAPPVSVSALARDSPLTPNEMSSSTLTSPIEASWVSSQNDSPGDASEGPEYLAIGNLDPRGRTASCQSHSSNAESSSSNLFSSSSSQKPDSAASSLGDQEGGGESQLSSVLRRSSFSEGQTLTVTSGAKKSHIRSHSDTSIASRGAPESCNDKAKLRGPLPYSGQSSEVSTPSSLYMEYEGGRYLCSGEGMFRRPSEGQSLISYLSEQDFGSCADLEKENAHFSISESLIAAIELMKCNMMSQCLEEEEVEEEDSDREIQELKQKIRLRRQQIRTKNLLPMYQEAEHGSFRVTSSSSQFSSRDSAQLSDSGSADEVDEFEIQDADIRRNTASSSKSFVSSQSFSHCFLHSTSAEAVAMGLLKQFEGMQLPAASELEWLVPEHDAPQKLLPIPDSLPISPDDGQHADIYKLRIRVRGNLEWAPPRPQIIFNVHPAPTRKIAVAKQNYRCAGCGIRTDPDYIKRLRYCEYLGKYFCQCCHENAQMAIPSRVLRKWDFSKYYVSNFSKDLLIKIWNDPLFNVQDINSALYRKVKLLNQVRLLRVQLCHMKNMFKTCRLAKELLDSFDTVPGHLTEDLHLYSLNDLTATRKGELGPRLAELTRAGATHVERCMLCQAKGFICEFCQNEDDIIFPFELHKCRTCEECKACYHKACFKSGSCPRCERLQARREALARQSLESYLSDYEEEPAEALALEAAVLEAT
Briefly: co-immunoprecipitation from HEK lysates over-expressing human LRRK2-GFP and/or Rubicon-Flag.

Results are given in words; binding and its absence hold for the method and conditions named. Binding seen in cells or lysates may run through a third protein. Some binding calls cover weakened binding; strength is not graded here. Where a sequence is shown, tags or fusion partners need not be part of it.

With “human LRRK2-GFP (from UniProt Q5S007 1-2527) (enzyme)”, the binding result is given as “binds”.
